In all, about 330,000 compounds went through this assay and about 1,000 (0.3%) were called active. The inconclusive results got no clear call from the source; some entries with a clear call stand among them for comparison. Calls come from the whole dose curve; as a rule, active = well fitted inhibition curve with a large enough effect; inconclusive = small, poorly fitted or top-dose-only effect; inactive = no such curve, though single readings can be large or run the other way; tested in mouse RAW 264.7 cells. Potencies of inconclusive entries are doubtful fits and often do not repeat.
Test: qHTS for Inhibitors of Cell Surface uPA Generation; note: nearly all actives have a fitted effect of over 55% in size
Settings: cell surface uPA generation assay; series mostly up to 38.3 µM; activity change, negative = inhibition: at the top concentration
In short: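 Using RAW 264.7 macrophages, the screen measures whether compounds keep cellular ATP up by preventing uPA-driven LF translocation. Treatment lasted 24 h at 37 C, with a final top concentration of 38.3 uM, and luminescence was the readout.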
% is set by controls: 0 for no effect and ±100 for the full control effect; potency is the fitted concentration of half-maximal effect.

Row | SMILES | Potency | activity change, negative = inhibition
1 | Cc1ccccc1N1CCN(C2=NC(=O)/C(=C\c3cccs3)S2)CC1 | inconclusive: 11.2 µM [inhibitor, single point] | 
2 | COc1ccc(CCNC(=O)/C=C/c2ccc(OC)c(S(=O)(=O)N3CCOCC3)c2)cc1 | inconclusive: 28.2 µM [inhibitor, single point] | 
3 | CCN(CC)S(=O)(=O)c1c(OC)cc(C)c(Cl)c1C | inconclusive: 1.41 µM [inhibitor, full curve, poor fit] | 
4 | Cc1cc2c(C)cc(=O)[nH]c2cc1NC(=O)CCl | inconclusive: 2.82 µM [inhibitor, full curve, poor fit] | 
5 | Cc1cc(N(CCO)CCO)ccc1N=Nc1cc(F)ccc1F |  | inactive: 6.22%
6 | C[C@H](CO)N1C[C@H](C)[C@@H](CN(C)Cc2ccccc2)Oc2c(NC(=O)Cc3ccccc3)cccc2C1=O | inconclusive: 12.6 µM [inhibitor, single point] | 
7 | COc1cc(SC)ccc1C(=O)Nc1nc(C)cc(C)n1 | inconclusive: 1.58 µM [inhibitor, partial curve] | 
8 | CCOc1ccc(CCNC(=O)CSCC(=O)Nc2ccc(OC)cc2)cc1OCC |  | inactive: -13.8%
9 | CC1(C)CC(NC(=S)NC(=O)c2cc(Br)ccc2Cl)CC(C)(C)N1 | inconclusive: 12.6 µM [inhibitor, partial curve, poor fit] | 
10 | CC(C)COc1ccc(C(=O)Nc2ncn[nH]2)cc1 |  | inactive: 2.05%
11 | O=C(N[C@H]1C/C=C\C[C@@H](CC(=O)N(CCO)Cc2ccccc2)C(=O)NC[C@H](c2ccccc2)OC1=O)OCC1c2ccccc2-c2ccccc21 | inconclusive: 10 µM [inhibitor, single point] | 
12 | O=C(NCc1cccc(C(F)(F)F)c1)c1cccc(S(=O)(=O)NCc2ccccc2)c1 |  | inactive: 3.44%
13 | C/C=C/C1=CC(=O)C[C@H](c2ccc(OC)c(OC)c2)C1 | inconclusive: 5.01 µM [inhibitor, partial curve, poor fit] | 
14 | O=[N+]([O-])/C=C/c1cn(Cc2ccccc2)c2ccccc12 | inconclusive: 8.91 µM [inhibitor, partial curve, poor fit] | 
15 | CCOC(=O)Cn1nc(NC(=O)COc2ccc(F)cc2)cc1C |  | inactive: -1.37%
16 | COc1cccc(OC)c1C(=O)Nc1ccccc1Sc1ccccc1 |  | inactive: -4.69%
17 | Cc1nc(NC(=O)c2ccc3c(c2)OCCO3)ccc1Br | inconclusive: 12.6 µM [inhibitor, single point] | 
18 | Cc1nn(C)c(Sc2ccccc2N)c1[N+](=O)[O-] |  | inactive: -27.8%
19 | COc1ccc(-n2nc(C(=O)NCC(=O)N3CCC(C)CC3)c3ccccc3c2=O)c(OC)c1 | inconclusive: 1.41 µM [inhibitor, full curve, poor fit] | 
20 | COc1cc(CN(C)CC2CCCN(CCc3ccc(F)cc3)C2)c(Cl)cc1O (stereo unspecified) | inconclusive: 14.1 µM [inhibitor, partial curve, poor fit] | 
21 | COc1ccccc1[C@@]1(C)ON(c2ccccc2C(F)(F)F)C1=O | inconclusive: 8.91 µM [inhibitor, partial curve, poor fit] | 
22 | CC1CCCN(Cc2nc3c(c(=O)n(C)c(=O)n3C)n2CC(=O)c2ccccc2)C1 (stereo unspecified) | inconclusive: 0.631 µM [inhibitor, full curve, poor fit] | 

Row | SMILES | Potency | activity change, negative = inhibition
23 | Cc1noc(NC(=O)c2ccc(Cl)c(Cl)c2)c1Cl | inconclusive: 31.6 µM [inhibitor, partial curve, poor fit] | 
24 | CCC1(C2=CCCCC2)C(=O)NC(=S)N=C1N (stereo unspecified) |  | inactive: -2.46%
25 | c1ccc(CSC2=NNC(c3ccccn3)S2)cc1 (stereo unspecified) |  | inactive: -7.32%
26 | COc1ccc(-c2nn(-c3ccccc3)cc2C(=O)N(C)CC(=O)Nc2cccc(F)c2)cc1 | inconclusive: 1.12 µM [inhibitor, single point] | 
27 | O=C(NC(=S)Nc1ccc(Oc2ccc(Cl)cc2)cc1)c1ccccc1 |  | inactive: -3.78%
28 | COc1ccc(/C=C/C(=O)c2c(O)ccc3c(C)cc(=O)oc23)cc1 | inconclusive: 4.47 µM [inhibitor, partial curve] | 
29 | CN1CCN(C(=O)CCCN2C(=O)/C(=C/c3ccc(Cl)cc3)SC2=S)CC1 | inconclusive: 6.31 µM [inhibitor, partial curve, poor fit] | 
30 | Cn1cccc/c1=N\c1cccc[n+]1C | inconclusive: 4.47 µM [inhibitor, partial curve, poor fit] | 
31 | COc1ccc(C2CC(c3cccc(F)c3)=NN2c2ccc(S(N)(=O)=O)cc2)cc1 (stereo unspecified) | inconclusive: 12.6 µM [inhibitor, partial curve, poor fit] | 
32 | Cc1ccc(-n2[nH]c(C)c(/C=N/c3ccccn3)c2=O)cc1 | inconclusive: 7.94 µM [inhibitor, partial curve, poor fit] | 
33 | COc1ccc(O)c(C(=O)c2cc(C#N)c(=O)n(CC3CCCO3)c2)c1 (stereo unspecified) |  | inactive: -3.32%
34 | COc1ccc(N=Nc2cc(C)ccc2O)cc1 | inconclusive: 6.31 µM [inhibitor, partial curve, poor fit] | 
35 | COCCN1CCN(C(=O)c2ccc3nc(Cc4ccc(OC)c(OC)c4)oc3c2)CC1 |  | inactive: -3.87%
36 | CC(OC(=O)c1ccc(O)cc1)C(=O)Nc1nc(-c2ccccc2)cs1 (stereo unspecified) | inconclusive: 7.94 µM [inhibitor, partial curve, poor fit] | 
37 | O=C(N/N=C/c1ccc([N+](=O)[O-])o1)C1CC1 | inconclusive: 28.2 µM [inhibitor, single point] | 
38 | Cc1ccc(NC(=O)CN2CCC(Cc3ccccc3)CC2)cc1S(=O)(=O)N(C)C | inconclusive: 12.6 µM [inhibitor, single point] | 
39 | CC(C)(C)c1nn(-c2ccccc2)c2[nH]c(=O)c(C=O)cc12 | inconclusive: 2 µM [inhibitor, full curve, poor fit] | 
40 | COc1ccc2c(c1)OC[C@H]1[C@H]2N2C(=O)c3ccc(C)cc3NC(=O)[C@@]2(C)[C@H]1c1ccccc1 | inconclusive: 12.6 µM [inhibitor, single point] | 
41 | O=S(=O)(NCCc1csc(-c2cccnc2)n1)c1cc(F)ccc1F | inconclusive: 1.12 µM [inhibitor, full curve] | 
42 | CCOC(=O)c1sc2nc(NC(=O)C(C)(C)C)sc2c1C | inconclusive: 11.2 µM [inhibitor, single point] | 
43 | Cc1ccccc1NC(=O)NCCc1ccc(Cl)cc1 | inconclusive: 3.98 µM [inhibitor, full curve, poor fit] | 
44 | O=[N+]([O-])c1ccc(Nc2nc(N/N=C/c3cccc(F)c3)nc(N3CCCC3)n2)cc1 |  | inactive: -1.54%

3 of the compounds above, tab-delimited.
Row	SMILES	Potency	activity change, negative = inhibition
41	O=S(=O)(NCCc1csc(-c2cccnc2)n1)c1cc(F)ccc1F	inconclusive: 1.12 µM [inhibitor, full curve]	
42	CCOC(=O)c1sc2nc(NC(=O)C(C)(C)C)sc2c1C	inconclusive: 11.2 µM [inhibitor, single point]	
43	Cc1ccccc1NC(=O)NCCc1ccc(Cl)cc1	inconclusive: 3.98 µM [inhibitor, full curve, poor fit]	

(listing goes on)

Row | SMILES | Potency | activity change, negative = inhibition
45 | Cc1ccc(-c2cc3cccc[n+]3cc2-c2ccc(C)cc2)cc1 | active: 10 µM | 
46 | CN(Cc1ccccc1)CC(O)COc1ccc(CNCCc2ccncc2)cc1 (stereo unspecified) |  | inactive: 5.9%
47 | Cc1ccc(C(CCNC(C)c2cccs2)c2ccco2)cc1 (stereo unspecified) |  | inactive: 3.31%
48 | Cc1ccccc1-c1n[nH]c(=S)o1 |  | inactive: 1.66%
49 | C[C@H](CO)N1C[C@H](C)[C@@H](CN(C)Cc2ccc(Oc3ccccc3)cc2)Oc2c(NC(=O)C3CC3)cccc2C1=O | inconclusive: 12.6 µM [inhibitor, single point] | 
50 | Cc1cc(C(=O)NC2CCCc3c2cnn3-c2ccc(C(C)(C)C)cc2)n[nH]1 (stereo unspecified) | inconclusive: 15.8 µM [inhibitor, single point] | 
51 | O=C(CC1C[C@H](C(=O)N2CCOCC2)[C@@]2(CCC3CCCC3)c3[nH]c4ccccc4c3CCN2C1=O)NCc1cccc(C(F)(F)F)c1 (stereo partly specified) |  | inactive: 15.8%
52 | CCCCCn1c(SC(C)C(C)=O)nc2c1c(=O)[nH]c(=O)n2C (stereo unspecified) | inconclusive: 8.91 µM [inhibitor, partial curve, poor fit] | 
53 | COc1ccc(S(=O)(=O)N2CCCCC2)cc1NC(=O)CN(Cc1ccco1)Cc1ccco1 | inconclusive: 5.62 µM [inhibitor, partial curve, poor fit] | 
54 | O=C(CNC(=O)c1ccc(Br)o1)Nc1ccc(N2CCCCCC2)cc1 | inconclusive: 7.94 µM [inhibitor, partial curve, poor fit] | 
55 | COc1cccc2sc3ccc(C#CC4(O)CCCCC4)cc3c(=O)c12 | inconclusive: 7.94 µM [inhibitor, partial curve] | 
56 | Cc1ccc(-c2cc(C(F)F)n3ncc(C(=O)N4CCc5ccccc54)c3n2)cc1 | inconclusive: 2.24 µM [inhibitor, full curve, poor fit] | 
57 | CCN(CC(=O)NCc1cccnc1)S(=O)(=O)c1ccc(OC)cc1 |  | inactive: 3.33%
58 | O=C(Nc1ccc(OC(F)(F)F)cc1)C1CCCN(C(=O)c2ccc(Cl)cc2)C1 (stereo unspecified) | inconclusive: 11.2 µM [inhibitor, single point] | 
59 | CCOC(=O)c1oc2ccc(S(=O)(=O)n3nc(-c4ccc(OC)cc4)cc3N)cc2c1C | inconclusive: 1.12 µM [inhibitor, single point] | 
60 | Cc1ccc(C(=O)Nc2ccc(Cl)cc2C)c(Cl)c1 | inconclusive: 8.91 µM [inhibitor, single point] | 
61 | CN(C)c1ccc(C(=S)NC2CCCCC2)cc1 | inconclusive: 8.91 µM [inhibitor, partial curve, poor fit] | 
62 | O=C(C(Br)=Cc1ccccc1)c1ccccc1 | inconclusive: 1 µM [inhibitor, full curve, poor fit] | 
63 | Cc1sc2nc(SCC(=O)N3CC(C)OC(C)C3)n(C)c(=O)c2c1C (stereo unspecified) | inconclusive: 1.41 µM [inhibitor, partial curve, poor fit] | 
64 | CC(C)c1cc[n+](-c2nc([O-])sc2C=O)cc1 |  | inactive: 4.47%
65 | Cc1c(NC(=S)N/N=C/c2ccc(Br)cc2)c(=O)n(-c2ccccc2)n1C |  | inactive: 21.1%
66 | CC(C(=O)NC1C=CS(=O)(=O)C1)N1C(=O)/C(=C/c2ccc(Cl)cc2)SC1=S (stereo unspecified) | inconclusive: 11.2 µM [inhibitor, partial curve, poor fit] | 

Reference: PubChem BioAssay AID540303 (National Center for Advancing Translational Sciences (NCATS), 2011)
